{"source": "paper PMC7819943", "about": "“Rice protein-binding microarrays: a tool to detect cis-acting elements near promoter regions in rice”", "note": "This is one part of the list.", "data": [{"molecular_target": "T1, OsSMF1 (Oryza sativa, UniProt Q6ZLB0 1-436)", "T1 sequence": "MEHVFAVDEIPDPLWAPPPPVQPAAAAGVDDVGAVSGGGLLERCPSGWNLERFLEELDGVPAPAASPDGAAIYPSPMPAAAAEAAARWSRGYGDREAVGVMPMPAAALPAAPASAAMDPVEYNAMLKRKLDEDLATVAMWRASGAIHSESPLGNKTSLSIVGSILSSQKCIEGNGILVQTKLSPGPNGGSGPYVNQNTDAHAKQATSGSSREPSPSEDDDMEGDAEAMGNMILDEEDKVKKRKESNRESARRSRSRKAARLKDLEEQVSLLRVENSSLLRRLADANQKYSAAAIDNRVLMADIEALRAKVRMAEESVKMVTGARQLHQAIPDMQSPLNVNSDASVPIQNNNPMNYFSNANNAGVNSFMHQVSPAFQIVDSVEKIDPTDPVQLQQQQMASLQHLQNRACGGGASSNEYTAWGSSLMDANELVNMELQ", "assay": "protein-binding microarray (RPBM); PBS, 2% BSA, 51.3 ng/ul salmon testes DNA, 50 uM zinc acetate, 200 nM TF, 25 C, 1 h; high values mean tight binding", "conditions": "protein: recombinant; tags: N-terminal polyhistidine and DsRed monomer fusion (pET32a); chain copies: 2; label: CyDye5-dUTP incorporated in the synthesized complementary strand; 3' TTTTT single-stranded linker to array surface; dsDNA, one strand shown", "how_it_was_run": "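An Axon 4000B scanner gave the binding signal as per-feature fluorescence intensity in arbitrary units. This followed washing of a custom Agilent array that had been incubated for 1 h at 25 °C with 200 nM protein in PBS, 2% BSA, salmon testes DNA and 50 µM zinc acetate. The proteins were transcription factors fused at the N-terminus to polyhistidine and DsRed, expressed in E. coli BL21-CodonPlus and purified on Ni–NTA.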", "values": [{"sequence": "GTGGATAAATCATACACCTGGACTCCAGTCATTGCACTGACGGAGTCACCTAGTGCAG", "binding signal": "3340 fluorescence intensity (a.u.)"}, {"sequence": "CTTGTGACAGATGCAGACATACGTATAGCCACGTACTCCTCGGAGTCACCTAGTGCAG", "binding signal": "7670 fluorescence intensity (a.u.)"}, {"sequence": "AACAAGTGGGTCCCACATCCGAGCCGAAGGAACGGAATCCCGGAGTCACCTAGTGCAG", "binding signal": "8120 fluorescence intensity (a.u.)"}, {"sequence": "TTGGATGTTTGCCGTGGACAAGTGCTAACTGTCAAAACCCCGGAGTCACCTAGTGCAG", "binding signal": "34900 fluorescence intensity (a.u.)"}, {"sequence": "TAGCGAGGTACCTATCATGACTTCGTCAGTCTCATATTTCCGGAGTCACCTAGTGCAG", "binding signal": "3340 fluorescence intensity (a.u.)"}, {"sequence": "GGTTTAAAACGACACTTATTTCTAACAAAACGTAATAATTCGGAGTCACCTAGTGCAG", "binding signal": "11400 fluorescence intensity (a.u.)"}, {"sequence": "ATGGGGAGGCGGCGAGTGGCCGGCGGGATAACGCACGACGCGGAGTCACCTAGTGCAG", "binding signal": "3470 fluorescence intensity (a.u.)"}, {"sequence": "GTACGACAACCACATACAACCCATGTCTGACTCAACTAGTCGGAGTCACCTAGTGCAG", "binding signal": "3540 fluorescence intensity (a.u.)"}, {"sequence": "GCATGCAGTTGACCTGGTCTCTCTGTCTGTATTTCAGCCGCGGAGTCACCTAGTGCAG", "binding signal": "3730 fluorescence intensity (a.u.)"}, {"sequence": "TGGTGGTGGGGAGGGTATTTATACCGGCTGACGAGGCGTGCGGAGTCACCTAGTGCAG", "binding signal": "8730 fluorescence intensity (a.u.)"}, {"sequence": "GAGATGCGGAGGGAGGGGAATGTTGGTGTGGCGGTGGCGACGGAGTCACCTAGTGCAG", "binding signal": "3910 fluorescence intensity (a.u.)"}, {"sequence": "GCGACTTGACCCCTGTAGCCTCGCGATCGTACGTGTCAACCGGAGTCACCTAGTGCAG", "binding signal": "6100 fluorescence intensity (a.u.)"}, {"sequence": "TCAAATTGAAAGTTTCCAAAATTTTCAAATCTGGACTTGACGGAGTCACCTAGTGCAG", "binding signal": "43500 fluorescence intensity (a.u.)"}, {"sequence": "TCTGAACCCAAACCCACGTGGGGCCAGACCAGCAACGCAGCGGAGTCACCTAGTGCAG", "binding signal": "3980 fluorescence intensity (a.u.)"}, {"sequence": "TCATATTACTGTCTTAATTAATTCATCATGCTGCTGACAGCGGAGTCACCTAGTGCAG", "binding signal": "3990 fluorescence intensity (a.u.)"}, {"sequence": "GAGTTCATCCTTATTGCTTTCTGTCTTGACATTTATCTTGCGGAGTCACCTAGTGCAG", "binding signal": "28500 fluorescence intensity (a.u.)"}, {"sequence": "AGTTCGAGCCTCTCTCATGACATCGTTGAACTTTATCGTGCGGAGTCACCTAGTGCAG", "binding signal": "3380 fluorescence intensity (a.u.)"}, {"sequence": "ACATCCGTTGCCTGGTGGCGCACTCACCCGTCGTGTGGATCGGAGTCACCTAGTGCAG", "binding signal": "3820 fluorescence intensity (a.u.)"}, {"sequence": "CAGTTAATTTACTTGTGACGTATCGCTGGGAAGTTAATTTCGGAGTCACCTAGTGCAG", "binding signal": "22000 fluorescence intensity (a.u.)"}, {"sequence": "GCCTCTACACCACAAGGAGAACAGTGGTGATGCCACACATCGGAGTCACCTAGTGCAG", "binding signal": "4310 fluorescence intensity (a.u.)"}, {"sequence": "GCTTGCCGACGCCGACGCCGCCGCCGCCACCGCCGTGGCGCGGAGTCACCTAGTGCAG", "binding signal": "4150 fluorescence intensity (a.u.)"}, {"sequence": "AGTTTTCATAAACTCCACATCATCAAGAAACTAGTACTAGCGGAGTCACCTAGTGCAG", "binding signal": "5420 fluorescence intensity (a.u.)"}, {"sequence": "AATAAATTATTTACATGATAATCGAGTTAGCAGTGATCGTCGGAGTCACCTAGTGCAG", "binding signal": "16000 fluorescence intensity (a.u.)"}, {"sequence": "TTGCAACTTGCAACTTGCAACGTGCGTGCCGCGTGGGTGGCGGAGTCACCTAGTGCAG", "binding signal": "4640 fluorescence intensity (a.u.)"}, {"sequence": "CTCTCTCTAGCGCAGCGTGCATGACGAGGACGGGCGGTGGCGGAGTCACCTAGTGCAG", "binding signal": "4860 fluorescence intensity (a.u.)"}, {"sequence": "TATTCTTGCACCATAACACTCCACGTAATACCATTATATGCGGAGTCACCTAGTGCAG", "binding signal": "9310 fluorescence intensity (a.u.)"}, {"sequence": "CGGGAACCACGCGTCGAACACTTTCGGGCGTCACCAACAGCGGAGTCACCTAGTGCAG", "binding signal": "4190 fluorescence intensity (a.u.)"}, {"sequence": "GTGAAGACCGAGCGAAGATTACGCCTCATCAGTCATCACCCGGAGTCACCTAGTGCAG", "binding signal": "4110 fluorescence intensity (a.u.)"}, {"sequence": "CATGTCAGACAGTCCACGTCATCACCTTTCTCTCCCCTCTCGGAGTCACCTAGTGCAG", "binding signal": "38200 fluorescence intensity (a.u.)"}, {"sequence": "TGCAAGATTGCAGCTACGCCAATGCGGCCCACGTAGTCGCCGGAGTCACCTAGTGCAG", "binding signal": "5000 fluorescence intensity (a.u.)"}, {"sequence": "AGTCCACCGCGTCCTTGCGCGCCTACGCGAGTGCTTGTCCCGGAGTCACCTAGTGCAG", "binding signal": "3330 fluorescence intensity (a.u.)"}, {"sequence": "GAGAGGCCCCAAGTGTGCTGACGCATCGAATTATTTACTCCGGAGTCACCTAGTGCAG", "binding signal": "8280 fluorescence intensity (a.u.)"}, {"sequence": "ATCGCCACCAGTGCGTGACGCCACTCCGTCGCGTCGCCGTCGGAGTCACCTAGTGCAG", "binding signal": "4740 fluorescence intensity (a.u.)"}, {"sequence": "TCTCTCTCTTTCTCGTCTCCTCCTATCCGCGTCCATCTCTCGGAGTCACCTAGTGCAG", "binding signal": "22400 fluorescence intensity (a.u.)"}, {"sequence": "CTTACCGTGTTATAGTAGCCACCCAGTCAGCCGCGCTAACCGGAGTCACCTAGTGCAG", "binding signal": "3570 fluorescence intensity (a.u.)"}, {"sequence": "TCAGCCCGACGTTTCTGCTGCAAAACCACGGCCTGATTCCCGGAGTCACCTAGTGCAG", "binding signal": "3490 fluorescence intensity (a.u.)"}, {"sequence": "TTGCGACGGCCATCCTCCGCGCGCGTGACACCAACGCCACCGGAGTCACCTAGTGCAG", "binding signal": "4880 fluorescence intensity (a.u.)"}, {"sequence": "ATGGAGACTTCTCACGCCAGACCCAAGTTTTGGCCTCCTCCGGAGTCACCTAGTGCAG", "binding signal": "12900 fluorescence intensity (a.u.)"}, {"sequence": "TCTCCTCCCGAACAACTTTCTCGAGGCCCGGCCCAACCCGCGGAGTCACCTAGTGCAG", "binding signal": "5980 fluorescence intensity (a.u.)"}, {"sequence": "TGCTTCCGGCGGCATTACCTCCTCGTCCTCGTCCGACTCCCGGAGTCACCTAGTGCAG", "binding signal": "3420 fluorescence intensity (a.u.)"}, {"sequence": "GATCTCAGCTCTGATCCATTCCATCCACGCCGCCGTCGCGCGGAGTCACCTAGTGCAG", "binding signal": "3140 fluorescence intensity (a.u.)"}, {"sequence": "CGGCACCAAATCAGCGCCCGCCCGCGCCCACCCCACCGGACGGAGTCACCTAGTGCAG", "binding signal": "3250 fluorescence intensity (a.u.)"}]}]}
